Laboratory results from article doi:10.1101/2025.04.11.648407.
Where two headings read alike, the source gives them in different places. These are yes or no findings as the source states them, for the method shown. In cells and extracts the contact can be indirect. Some results given as binding are weak or reduced against the parent protein; the word gives no strength. For some of these results: Where a sequence is shown, tags or fusion partners need not be part of it. One block for each molecule: values may come before it.

Protein sequences, listed by entry. Tags and fused reporters are not part of them. Residues count along the entry.
UniProt P53618: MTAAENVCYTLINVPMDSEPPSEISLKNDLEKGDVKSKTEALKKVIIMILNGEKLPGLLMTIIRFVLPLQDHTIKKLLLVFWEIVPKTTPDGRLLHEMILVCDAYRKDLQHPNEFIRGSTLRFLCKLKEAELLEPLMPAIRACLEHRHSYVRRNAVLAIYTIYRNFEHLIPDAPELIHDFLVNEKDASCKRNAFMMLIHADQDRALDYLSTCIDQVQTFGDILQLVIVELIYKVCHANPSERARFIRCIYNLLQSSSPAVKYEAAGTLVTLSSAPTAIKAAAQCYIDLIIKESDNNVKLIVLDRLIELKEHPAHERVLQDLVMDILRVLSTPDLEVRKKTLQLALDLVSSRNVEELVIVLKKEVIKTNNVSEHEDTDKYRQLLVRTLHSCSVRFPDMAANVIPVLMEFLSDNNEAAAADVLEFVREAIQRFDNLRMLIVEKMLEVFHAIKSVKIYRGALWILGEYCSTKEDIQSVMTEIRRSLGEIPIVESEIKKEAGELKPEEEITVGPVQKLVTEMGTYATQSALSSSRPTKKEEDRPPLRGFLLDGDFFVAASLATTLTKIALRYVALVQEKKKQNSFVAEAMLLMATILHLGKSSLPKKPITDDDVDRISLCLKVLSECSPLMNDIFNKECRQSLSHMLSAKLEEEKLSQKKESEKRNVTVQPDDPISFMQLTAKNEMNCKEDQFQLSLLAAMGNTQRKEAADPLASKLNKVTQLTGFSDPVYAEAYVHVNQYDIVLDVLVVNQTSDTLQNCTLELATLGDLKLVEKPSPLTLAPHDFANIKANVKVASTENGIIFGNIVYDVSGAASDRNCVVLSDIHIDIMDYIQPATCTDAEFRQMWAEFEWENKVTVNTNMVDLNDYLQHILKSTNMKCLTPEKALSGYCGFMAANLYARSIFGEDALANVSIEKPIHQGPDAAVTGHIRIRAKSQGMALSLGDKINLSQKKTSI
UniProt Q9Y678: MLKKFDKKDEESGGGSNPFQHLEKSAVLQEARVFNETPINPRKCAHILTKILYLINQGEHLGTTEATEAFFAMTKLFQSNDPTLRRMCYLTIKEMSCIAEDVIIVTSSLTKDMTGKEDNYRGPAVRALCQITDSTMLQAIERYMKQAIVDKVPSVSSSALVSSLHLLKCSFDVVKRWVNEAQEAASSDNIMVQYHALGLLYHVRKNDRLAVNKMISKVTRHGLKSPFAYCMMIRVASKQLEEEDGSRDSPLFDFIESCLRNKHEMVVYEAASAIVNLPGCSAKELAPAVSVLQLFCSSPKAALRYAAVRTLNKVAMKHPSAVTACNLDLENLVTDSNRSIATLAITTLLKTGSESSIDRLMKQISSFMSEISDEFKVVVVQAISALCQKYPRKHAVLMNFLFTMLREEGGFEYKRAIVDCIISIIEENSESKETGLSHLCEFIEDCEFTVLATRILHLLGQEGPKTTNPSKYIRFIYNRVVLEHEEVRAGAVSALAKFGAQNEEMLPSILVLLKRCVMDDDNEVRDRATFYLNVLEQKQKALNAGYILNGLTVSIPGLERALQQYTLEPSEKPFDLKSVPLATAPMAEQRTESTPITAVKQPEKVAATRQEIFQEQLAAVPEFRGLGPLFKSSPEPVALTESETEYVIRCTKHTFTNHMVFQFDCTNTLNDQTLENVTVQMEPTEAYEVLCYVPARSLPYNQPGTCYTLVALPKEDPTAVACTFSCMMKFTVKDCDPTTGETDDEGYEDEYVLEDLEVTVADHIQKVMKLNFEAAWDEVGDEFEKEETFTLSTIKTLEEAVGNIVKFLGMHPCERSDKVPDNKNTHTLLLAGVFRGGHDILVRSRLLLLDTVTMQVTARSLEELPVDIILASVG
UniProt P04406: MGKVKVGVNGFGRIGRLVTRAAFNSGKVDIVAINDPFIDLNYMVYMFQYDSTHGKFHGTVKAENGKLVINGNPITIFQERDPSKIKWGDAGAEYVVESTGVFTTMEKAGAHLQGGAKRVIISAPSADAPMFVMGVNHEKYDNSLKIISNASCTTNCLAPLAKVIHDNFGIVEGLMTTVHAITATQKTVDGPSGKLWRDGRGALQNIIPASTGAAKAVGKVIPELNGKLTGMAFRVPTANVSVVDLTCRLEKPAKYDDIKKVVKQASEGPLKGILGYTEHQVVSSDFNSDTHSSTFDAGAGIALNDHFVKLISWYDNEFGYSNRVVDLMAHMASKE
UniProt Q15465, residues 24-462: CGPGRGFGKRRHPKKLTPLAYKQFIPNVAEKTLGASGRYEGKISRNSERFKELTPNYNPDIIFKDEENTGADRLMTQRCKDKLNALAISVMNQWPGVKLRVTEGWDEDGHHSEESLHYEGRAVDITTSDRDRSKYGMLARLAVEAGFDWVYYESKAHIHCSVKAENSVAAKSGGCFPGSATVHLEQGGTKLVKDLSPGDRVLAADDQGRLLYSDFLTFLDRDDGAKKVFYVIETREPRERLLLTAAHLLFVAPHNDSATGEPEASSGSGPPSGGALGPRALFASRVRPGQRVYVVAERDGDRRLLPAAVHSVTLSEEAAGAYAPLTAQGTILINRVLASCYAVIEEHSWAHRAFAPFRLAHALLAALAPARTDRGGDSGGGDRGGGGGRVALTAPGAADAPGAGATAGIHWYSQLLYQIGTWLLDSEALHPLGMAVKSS
UniProt P11717, residues 41-2491: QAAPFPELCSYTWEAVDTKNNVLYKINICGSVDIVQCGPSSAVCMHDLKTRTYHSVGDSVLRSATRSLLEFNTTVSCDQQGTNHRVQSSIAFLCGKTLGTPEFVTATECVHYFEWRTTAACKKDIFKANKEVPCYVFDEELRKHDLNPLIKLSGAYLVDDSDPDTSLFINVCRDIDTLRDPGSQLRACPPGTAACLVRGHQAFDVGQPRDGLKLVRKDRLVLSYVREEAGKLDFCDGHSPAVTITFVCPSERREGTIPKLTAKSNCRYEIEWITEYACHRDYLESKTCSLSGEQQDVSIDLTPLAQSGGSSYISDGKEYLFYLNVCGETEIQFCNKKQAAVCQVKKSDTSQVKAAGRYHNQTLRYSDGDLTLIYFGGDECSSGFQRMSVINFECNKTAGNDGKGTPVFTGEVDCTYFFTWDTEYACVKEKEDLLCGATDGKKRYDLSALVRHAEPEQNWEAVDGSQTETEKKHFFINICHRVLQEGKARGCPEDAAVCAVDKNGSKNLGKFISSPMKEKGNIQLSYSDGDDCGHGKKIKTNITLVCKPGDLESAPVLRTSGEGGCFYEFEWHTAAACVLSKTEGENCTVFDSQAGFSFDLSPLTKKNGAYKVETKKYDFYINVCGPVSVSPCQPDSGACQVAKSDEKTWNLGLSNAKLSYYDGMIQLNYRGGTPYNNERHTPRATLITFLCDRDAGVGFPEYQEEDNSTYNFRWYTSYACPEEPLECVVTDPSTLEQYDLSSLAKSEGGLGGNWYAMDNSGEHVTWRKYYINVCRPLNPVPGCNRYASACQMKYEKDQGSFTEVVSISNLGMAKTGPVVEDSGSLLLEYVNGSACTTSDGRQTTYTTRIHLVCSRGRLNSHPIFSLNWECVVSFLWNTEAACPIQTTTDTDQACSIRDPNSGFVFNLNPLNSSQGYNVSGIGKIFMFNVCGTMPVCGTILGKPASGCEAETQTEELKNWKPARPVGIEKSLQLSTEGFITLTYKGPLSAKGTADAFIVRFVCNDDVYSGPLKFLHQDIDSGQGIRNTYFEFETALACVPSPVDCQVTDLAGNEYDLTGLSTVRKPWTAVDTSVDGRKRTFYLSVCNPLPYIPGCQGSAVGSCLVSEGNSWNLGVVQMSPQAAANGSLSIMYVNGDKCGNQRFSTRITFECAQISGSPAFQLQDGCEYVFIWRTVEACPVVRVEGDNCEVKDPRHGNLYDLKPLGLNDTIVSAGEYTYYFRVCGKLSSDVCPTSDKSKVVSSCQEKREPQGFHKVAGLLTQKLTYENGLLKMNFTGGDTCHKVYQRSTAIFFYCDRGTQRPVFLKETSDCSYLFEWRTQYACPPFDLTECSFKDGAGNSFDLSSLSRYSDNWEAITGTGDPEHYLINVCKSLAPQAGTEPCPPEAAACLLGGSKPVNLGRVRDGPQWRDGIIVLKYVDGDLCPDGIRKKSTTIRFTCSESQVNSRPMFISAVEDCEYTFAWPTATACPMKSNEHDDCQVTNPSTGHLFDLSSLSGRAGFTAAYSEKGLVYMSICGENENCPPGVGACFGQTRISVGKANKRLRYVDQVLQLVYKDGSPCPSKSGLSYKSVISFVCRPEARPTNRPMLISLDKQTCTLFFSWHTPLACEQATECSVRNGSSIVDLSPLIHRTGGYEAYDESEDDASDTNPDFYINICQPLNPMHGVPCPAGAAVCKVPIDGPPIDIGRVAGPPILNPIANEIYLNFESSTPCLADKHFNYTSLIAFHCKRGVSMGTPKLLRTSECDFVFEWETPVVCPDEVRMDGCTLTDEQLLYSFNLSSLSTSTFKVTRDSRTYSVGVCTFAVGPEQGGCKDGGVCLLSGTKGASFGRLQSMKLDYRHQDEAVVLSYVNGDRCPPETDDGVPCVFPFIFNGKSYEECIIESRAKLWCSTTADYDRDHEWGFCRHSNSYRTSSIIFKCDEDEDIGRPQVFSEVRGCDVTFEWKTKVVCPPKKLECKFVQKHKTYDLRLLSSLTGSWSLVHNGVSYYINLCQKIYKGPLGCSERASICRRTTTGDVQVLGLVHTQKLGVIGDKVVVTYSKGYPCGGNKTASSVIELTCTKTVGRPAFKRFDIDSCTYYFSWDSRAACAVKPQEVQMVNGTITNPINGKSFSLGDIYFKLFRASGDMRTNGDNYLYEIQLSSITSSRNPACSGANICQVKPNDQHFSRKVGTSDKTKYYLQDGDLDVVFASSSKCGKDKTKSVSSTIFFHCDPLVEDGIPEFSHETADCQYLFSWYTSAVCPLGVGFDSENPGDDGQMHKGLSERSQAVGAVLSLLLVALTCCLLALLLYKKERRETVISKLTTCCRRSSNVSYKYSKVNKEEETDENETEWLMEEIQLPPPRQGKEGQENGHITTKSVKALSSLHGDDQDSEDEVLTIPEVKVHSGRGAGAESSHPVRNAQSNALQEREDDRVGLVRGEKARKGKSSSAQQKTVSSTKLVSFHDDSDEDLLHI

Assays:
LEPROTL1-HA (human) [1] = molecular target: T1, LEPROTL1-HA (human) (UniProt O95214); assay: co-IP
T1 sequence: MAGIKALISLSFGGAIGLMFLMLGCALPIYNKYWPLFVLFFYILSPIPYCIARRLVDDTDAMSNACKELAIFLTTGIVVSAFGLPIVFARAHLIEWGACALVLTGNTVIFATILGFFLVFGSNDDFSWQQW

LEPROTL1-HA (human) [2] = molecular target: T1, LEPROTL1-HA (human); assay: co-IP; remark: listed apart in the source
LEPROTL1 R90H (human) [3] = molecular target: T2, LEPROTL1 R90H (human) (UniProt O95214); assay: co-IP
T2 sequence: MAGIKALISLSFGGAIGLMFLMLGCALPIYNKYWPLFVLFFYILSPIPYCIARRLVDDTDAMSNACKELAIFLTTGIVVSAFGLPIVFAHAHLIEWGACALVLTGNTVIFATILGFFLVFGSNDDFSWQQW

LEPROTL1-HA (human) [4] = molecular target: T1, LEPROTL1-HA (human); assay: co-IP; remark: listed apart in the source
LEPROTL1 R90H (human) [5] = molecular target: T2, LEPROTL1 R90H (human); assay: co-IP; remark: listed apart in the source
LEPROTL1-HA (human) [6] = molecular target: T1, LEPROTL1-HA (human); assay: co-IP; remark: listed apart in the source
GST-tagged COPD (human) [7] = molecular target: T3, GST-tagged COPD (human) (UniProt P48444); assay: pull-down
T3 sequence: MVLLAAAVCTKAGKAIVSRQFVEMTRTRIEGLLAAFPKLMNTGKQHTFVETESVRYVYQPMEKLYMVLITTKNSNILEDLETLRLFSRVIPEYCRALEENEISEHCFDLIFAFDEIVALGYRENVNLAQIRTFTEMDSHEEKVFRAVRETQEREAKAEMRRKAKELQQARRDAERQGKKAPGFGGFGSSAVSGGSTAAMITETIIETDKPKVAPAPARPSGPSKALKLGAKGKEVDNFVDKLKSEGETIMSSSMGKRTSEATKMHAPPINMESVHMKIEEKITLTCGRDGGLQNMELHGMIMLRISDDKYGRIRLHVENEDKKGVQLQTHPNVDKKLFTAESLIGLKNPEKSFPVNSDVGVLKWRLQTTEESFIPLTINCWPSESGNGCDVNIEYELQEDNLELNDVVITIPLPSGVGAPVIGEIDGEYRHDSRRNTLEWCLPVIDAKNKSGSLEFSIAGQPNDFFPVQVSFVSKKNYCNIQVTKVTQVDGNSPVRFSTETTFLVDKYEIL

GST-tagged COPD (human) [8] = molecular target: T3, GST-tagged COPD (human); assay: pull-down; remark: listed apart in the source
GST-tagged COPD (human) [9] = molecular target: T3, GST-tagged COPD (human); assay: pull-down; remark: listed apart in the source
GST-tagged COPD (human) [10] = molecular target: T3, GST-tagged COPD (human); assay: pull-down; remark: listed apart in the source

binding (LEPROTL1-HA (human) [1]): binds
Molecule: COPB1 (from UniProt P53618 1-953)

binding (LEPROTL1-HA (human) [1]): binds
Molecule: COPG1 (from UniProt Q9Y678 1-874)

binding (LEPROTL1-HA (human) [1]): binds | binding (LEPROTL1-HA (human) [2]): no binding (condition: at pH 7.2) | binding (LEPROTL1 R90H (human) [3]): no binding (condition: at pH 7.2) | binding (LEPROTL1-HA (human) [4]): binds | binding (LEPROTL1 R90H (human) [5]): binds
Molecule: EGFR (from UniProt P00533 25-1210) (receptor)

binding (LEPROTL1-HA (human) [6]): no binding
B1: B4GALT1 (enzyme, UniProt P15291 1-398)
chain: MRLREPLLSGSAAMPGASLQRACRLLVAVCALHLGVTLVYYLAGRDLSRLPQLVGVSTPLQGGSNSAAAIGQSSGELRTGGARPPPPLGASSQPRPGGDSSPVVDSGPGPASNLTSVPVPHTTALSLPACPEESPLLVGPMLIEFNMPVDLELVAKQNPNVKMGGRYAPRDCVSPHKVAIIIPFRNRQEHLKYWLYYLHPVLQRQQLDYGIYVINQAGDTIFNRAKLLNVGFQEALKDYDYTCFVFSDVDLIPMNDHNAYRCFSQPRHISVAMDKFGFSLPYVQYFGGVSALSKQQFLTINGFPNNYWGWGGEDDDIFNRLVFRGMSISRPNAVVGRCRMIRHSRDKKNEPNPQRFDRIAHTKETMLSDGLNSLTYQVLDVQRYPLYTQITVDIGTPS

Second part, the molecule before the results:

Molecule: EGFR-FLAG (from UniProt P00533 25-1210) (receptor)
binding (LEPROTL1-HA (human) [1]): binds

Molecule: GAPDH (from UniProt P04406 1-335)
binding (LEPROTL1-HA (human) [1]): no binding

Molecule: SHH (from UniProt Q15465 24-462)
binding (LEPROTL1-HA (human) [1]): no binding

Molecule: IGF2R (from UniProt P11717 41-2491) (receptor)
binding (LEPROTL1-HA (human) [1]): binds

B2: GOLIM4 (protein, UniProt O00461 1-696)
chain: MGNGMCSRKQKRIFQTLLLLTVVFGFLYGAMLYYELQTQLRKAEAVALKYQQHQESLSAQLQVVYEHRSRLEKSLQKERLEHKKAKEDFLVYKLEAQETLNKGRQDSNSRYSALNVQHQMLKSQHEELKKQHSDLEEEHRKQGEDFSRTFNDHKQKYLQLQQEKEQELSKLKETVYNLREENRQLRKAHQDIHTQLQDVKQQHKNLLSEHEQLVVTLEDHKSALAAAQTQVAEYKQLKDTLNRIPSLRKPDPAEQQNVTQVAHSPQGYNTAREKPTREVQEVSRNNDVWQNHEAVPGRAEDTKLYAPTHKEAEFQAPPEPIQQEVERREPEEHQVEEEHRKALEEEEMEQVGQAEHLEEEHDPSPEEQDREWKEQHEQREAANLLEGHARAEVYPSAKPMIKFQSPYEEQLEQQRLAVQQVEEAQQLREHQEALHQQRLQGHLLRQQEQQQQQVAREMALQRQAELEEGRPQHQEQLRQQAHYDAMDNDIVQGAEDQGIQGEEGAYERDNQHQDEAEGDPGNRHEPREQGPREADPESEADRAAVEDINPADDPNNQGEDEFEEAEQVREENLPDENEEQKQSNQKQENTEVEEHLVMAGNPDQQEDNVDEQYQEEAEEEVQEDLTEEKKRELEHNAEETYGENDENTDDKNNDGEEQEVRDDNRPKGREEHYEEEEEEEEDGAAVAEKSHRRAEM
binding (GST-tagged COPD (human) [7]): binds | binding (GST-tagged COPD (human) [8]): binds | binding (GST-tagged COPD (human) [9]): binds | binding (GST-tagged COPD (human) [10]): binds
